According to publication PMC4278855:
Read-outs that look alike come from different tables or passages of the source. No constants are given. Whether binding was seen depends on the method and setting. Binding seen in cells or lysates may run through a third protein. Some binding calls cover weakened binding; strength is not graded here. For part of these data: Where a sequence is shown, tags or fusion partners need not be part of it.

Amino acid sequences for entries named in this document (tags omitted).
UniProt P67775: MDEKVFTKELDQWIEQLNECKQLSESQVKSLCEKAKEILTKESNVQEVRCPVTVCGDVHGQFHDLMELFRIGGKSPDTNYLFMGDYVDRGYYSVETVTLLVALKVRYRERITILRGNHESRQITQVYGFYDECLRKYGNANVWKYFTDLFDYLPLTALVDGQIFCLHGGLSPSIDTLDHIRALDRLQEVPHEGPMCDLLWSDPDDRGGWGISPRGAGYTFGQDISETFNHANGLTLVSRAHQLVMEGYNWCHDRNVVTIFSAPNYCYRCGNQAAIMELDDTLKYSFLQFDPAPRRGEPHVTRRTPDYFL
UniProt P30153: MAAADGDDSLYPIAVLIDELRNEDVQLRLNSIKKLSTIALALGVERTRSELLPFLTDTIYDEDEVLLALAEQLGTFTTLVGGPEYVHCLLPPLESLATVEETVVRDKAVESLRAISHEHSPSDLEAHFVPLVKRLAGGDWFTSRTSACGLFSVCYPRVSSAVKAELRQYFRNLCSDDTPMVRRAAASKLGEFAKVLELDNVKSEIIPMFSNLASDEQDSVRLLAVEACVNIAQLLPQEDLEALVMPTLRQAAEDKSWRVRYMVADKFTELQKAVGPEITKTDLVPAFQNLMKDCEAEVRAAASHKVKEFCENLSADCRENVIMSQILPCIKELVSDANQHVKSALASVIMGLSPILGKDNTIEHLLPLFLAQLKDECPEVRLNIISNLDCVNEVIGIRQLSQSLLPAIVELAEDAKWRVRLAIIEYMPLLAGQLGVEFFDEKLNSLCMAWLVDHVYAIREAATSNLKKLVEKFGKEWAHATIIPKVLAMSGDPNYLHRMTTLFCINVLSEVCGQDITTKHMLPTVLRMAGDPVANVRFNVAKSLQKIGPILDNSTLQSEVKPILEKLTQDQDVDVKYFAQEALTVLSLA

T1: NOSIP (endogenous) (human (endogenous in HeLa)) (UniProt Q9Y314)
T1 sequence: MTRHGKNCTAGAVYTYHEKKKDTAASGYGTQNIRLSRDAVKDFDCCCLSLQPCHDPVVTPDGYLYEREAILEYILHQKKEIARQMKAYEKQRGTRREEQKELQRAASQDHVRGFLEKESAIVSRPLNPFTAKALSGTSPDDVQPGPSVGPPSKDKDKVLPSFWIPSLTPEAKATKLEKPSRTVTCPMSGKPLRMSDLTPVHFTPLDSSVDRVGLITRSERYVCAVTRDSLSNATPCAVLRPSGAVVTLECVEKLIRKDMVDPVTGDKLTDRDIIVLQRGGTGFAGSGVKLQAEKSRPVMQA

T2: GST-NOSIP (UniProt Q9Y314)
T2 sequence: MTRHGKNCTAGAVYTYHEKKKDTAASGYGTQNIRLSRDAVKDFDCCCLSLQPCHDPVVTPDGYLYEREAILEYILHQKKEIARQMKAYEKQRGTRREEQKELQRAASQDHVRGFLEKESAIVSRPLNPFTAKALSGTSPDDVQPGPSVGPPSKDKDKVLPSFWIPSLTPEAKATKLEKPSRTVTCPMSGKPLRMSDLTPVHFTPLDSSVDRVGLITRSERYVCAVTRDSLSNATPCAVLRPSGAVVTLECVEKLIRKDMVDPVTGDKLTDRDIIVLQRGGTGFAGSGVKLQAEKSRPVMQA


Tests used:
[1] = molecular target: T1, NOSIP (endogenous) (human (endogenous in HeLa)); assay: co-IP; endogenous proteins from HeLa cell lysate; IP with a polyclonal NOSIP-specific antiserum, Protein A/G Agarose; beads only as control; immunoblot with PP2A subunit-specific antibodies
[2] = molecular target: T2, GST-NOSIP; assay: pull-down; GST-NOSIP on Glutathione sepharose beads incubated with cleared HeLa cell lysate at 4°C; immunoblot with PP2A subunit-specific antibodies; only the target purified
[3] = substrate: T3, NOSIP (endogenous) (human (endogenous in HeLa)) (UniProt Q9Y314); assay: co-IP; endogenous proteins from HeLa cell lysate; IP with a polyclonal NOSIP-specific antiserum, Protein A/G Agarose; beads only as control; immunoblot with PP2A subunit-specific antibodies; remark: listed apart in the source
T3 sequence: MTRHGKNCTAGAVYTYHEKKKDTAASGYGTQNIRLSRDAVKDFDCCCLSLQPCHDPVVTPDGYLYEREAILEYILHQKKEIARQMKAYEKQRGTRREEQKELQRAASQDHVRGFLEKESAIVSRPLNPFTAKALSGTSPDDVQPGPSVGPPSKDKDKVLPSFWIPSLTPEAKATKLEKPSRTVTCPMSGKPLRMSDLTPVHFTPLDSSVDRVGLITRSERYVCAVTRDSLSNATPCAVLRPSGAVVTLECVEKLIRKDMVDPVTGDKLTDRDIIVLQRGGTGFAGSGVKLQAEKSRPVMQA

Row | Molecule | binding [1] | binding [2] | binding [3]
1 | PP2A catalytic subunit alpha isoform (from UniProt P67775 1-309) (enzyme) | binds | binds | 
2 | PP2A subunit A isoform PR65-alpha (from UniProt P30153 1-589) | binds | binds | 
3 | PP2A subunit B isoform B55-alpha (protein, UniProt P63151 1-447) MAGAGGGNDIQWCFSQVKGAVDDDVAEADIISTVEFNHSGELLATGDKGGRVVIFQQEQENKIQSHSRGEYNVYSTFQSHEPEFDYLKSLEIEEKINKIRWLPQKNAAQFLLSTNDKTIKLWKISERDKRPEGYNLKEEDGRYRDPTTVTTLRVPVFRPMDLMVEASPRRIFANAHTYHINSISINSDYETYLSADDLRINLWHLEITDRSFNIVDIKPANMEELTEVITAAEFHPNSCNTFVYSSSKGTIRLCDMRASALCDRHSKLFEEPEDPSNRSFFSEIISSISDVKFSHSGRYMMTRDYLSVKIWDLNMENRPVETYQVHEYLRSKLCSLYENDCIFDKFECCWNGSDSVVMTGSYNNFFRMFDRNTKRDITLEASRENNKPRTVLKPRKVCASGKRKKDEISVDSLDFNKKILHTAWHPKENIIAVATTNNLYIFQDKVN |  | binds | binds
